Laboratory results taken from the supplement of paper PMC10849652.
The other results are listed elsewhere or left out.

Protein sequences, listed by entry. Tags and fused reporters are not part of them. Lines headed by an entry give the natural chain unless they say otherwise; changes in a name come on top.
UniProt Q8IYB3: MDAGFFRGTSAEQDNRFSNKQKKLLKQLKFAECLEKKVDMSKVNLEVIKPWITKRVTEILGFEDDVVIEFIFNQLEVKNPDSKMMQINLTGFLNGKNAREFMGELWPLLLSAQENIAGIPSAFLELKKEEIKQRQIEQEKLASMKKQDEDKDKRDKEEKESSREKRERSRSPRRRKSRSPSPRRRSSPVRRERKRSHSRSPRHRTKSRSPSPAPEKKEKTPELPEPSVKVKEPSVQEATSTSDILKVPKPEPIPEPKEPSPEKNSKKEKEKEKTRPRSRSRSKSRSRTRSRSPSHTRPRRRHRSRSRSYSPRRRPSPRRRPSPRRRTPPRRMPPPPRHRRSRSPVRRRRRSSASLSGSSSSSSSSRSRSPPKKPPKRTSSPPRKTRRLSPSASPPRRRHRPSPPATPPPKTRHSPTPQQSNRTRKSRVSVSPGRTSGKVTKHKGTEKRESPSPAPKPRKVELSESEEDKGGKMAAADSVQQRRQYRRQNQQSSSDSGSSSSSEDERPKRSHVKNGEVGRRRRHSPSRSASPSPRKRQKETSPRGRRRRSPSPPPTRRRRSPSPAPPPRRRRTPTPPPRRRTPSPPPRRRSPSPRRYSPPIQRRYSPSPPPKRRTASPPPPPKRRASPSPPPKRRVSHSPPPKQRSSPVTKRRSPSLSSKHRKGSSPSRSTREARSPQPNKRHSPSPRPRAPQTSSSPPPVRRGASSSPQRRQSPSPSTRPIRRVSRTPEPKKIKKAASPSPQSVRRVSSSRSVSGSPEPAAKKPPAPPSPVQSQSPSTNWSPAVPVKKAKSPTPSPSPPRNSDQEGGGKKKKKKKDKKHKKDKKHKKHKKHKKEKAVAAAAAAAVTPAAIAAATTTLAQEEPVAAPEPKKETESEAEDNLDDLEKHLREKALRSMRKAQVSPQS
UniProt P49458: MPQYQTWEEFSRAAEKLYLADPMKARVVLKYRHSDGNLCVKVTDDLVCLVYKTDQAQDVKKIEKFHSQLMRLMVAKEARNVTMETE
UniProt Q9HBM1: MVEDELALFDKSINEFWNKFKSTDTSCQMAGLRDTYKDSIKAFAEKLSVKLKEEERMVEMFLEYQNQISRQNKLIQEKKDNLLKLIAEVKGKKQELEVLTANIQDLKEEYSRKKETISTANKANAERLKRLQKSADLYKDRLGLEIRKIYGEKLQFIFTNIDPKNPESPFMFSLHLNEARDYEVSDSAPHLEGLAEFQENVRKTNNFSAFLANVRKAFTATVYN
UniProt P61011: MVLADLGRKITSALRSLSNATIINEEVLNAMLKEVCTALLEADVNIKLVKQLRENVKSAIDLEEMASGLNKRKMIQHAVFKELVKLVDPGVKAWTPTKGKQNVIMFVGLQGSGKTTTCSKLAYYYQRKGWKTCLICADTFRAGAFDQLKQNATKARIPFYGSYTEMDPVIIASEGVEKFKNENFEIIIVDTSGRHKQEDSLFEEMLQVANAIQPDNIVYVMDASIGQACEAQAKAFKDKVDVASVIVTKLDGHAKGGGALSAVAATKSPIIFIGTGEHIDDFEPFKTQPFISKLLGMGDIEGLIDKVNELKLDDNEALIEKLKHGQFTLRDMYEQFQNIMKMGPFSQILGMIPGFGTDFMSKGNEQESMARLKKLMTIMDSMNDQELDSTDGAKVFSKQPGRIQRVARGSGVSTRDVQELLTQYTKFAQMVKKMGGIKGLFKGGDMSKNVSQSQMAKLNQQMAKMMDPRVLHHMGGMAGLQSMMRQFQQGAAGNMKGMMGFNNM
UniProt Q76I76: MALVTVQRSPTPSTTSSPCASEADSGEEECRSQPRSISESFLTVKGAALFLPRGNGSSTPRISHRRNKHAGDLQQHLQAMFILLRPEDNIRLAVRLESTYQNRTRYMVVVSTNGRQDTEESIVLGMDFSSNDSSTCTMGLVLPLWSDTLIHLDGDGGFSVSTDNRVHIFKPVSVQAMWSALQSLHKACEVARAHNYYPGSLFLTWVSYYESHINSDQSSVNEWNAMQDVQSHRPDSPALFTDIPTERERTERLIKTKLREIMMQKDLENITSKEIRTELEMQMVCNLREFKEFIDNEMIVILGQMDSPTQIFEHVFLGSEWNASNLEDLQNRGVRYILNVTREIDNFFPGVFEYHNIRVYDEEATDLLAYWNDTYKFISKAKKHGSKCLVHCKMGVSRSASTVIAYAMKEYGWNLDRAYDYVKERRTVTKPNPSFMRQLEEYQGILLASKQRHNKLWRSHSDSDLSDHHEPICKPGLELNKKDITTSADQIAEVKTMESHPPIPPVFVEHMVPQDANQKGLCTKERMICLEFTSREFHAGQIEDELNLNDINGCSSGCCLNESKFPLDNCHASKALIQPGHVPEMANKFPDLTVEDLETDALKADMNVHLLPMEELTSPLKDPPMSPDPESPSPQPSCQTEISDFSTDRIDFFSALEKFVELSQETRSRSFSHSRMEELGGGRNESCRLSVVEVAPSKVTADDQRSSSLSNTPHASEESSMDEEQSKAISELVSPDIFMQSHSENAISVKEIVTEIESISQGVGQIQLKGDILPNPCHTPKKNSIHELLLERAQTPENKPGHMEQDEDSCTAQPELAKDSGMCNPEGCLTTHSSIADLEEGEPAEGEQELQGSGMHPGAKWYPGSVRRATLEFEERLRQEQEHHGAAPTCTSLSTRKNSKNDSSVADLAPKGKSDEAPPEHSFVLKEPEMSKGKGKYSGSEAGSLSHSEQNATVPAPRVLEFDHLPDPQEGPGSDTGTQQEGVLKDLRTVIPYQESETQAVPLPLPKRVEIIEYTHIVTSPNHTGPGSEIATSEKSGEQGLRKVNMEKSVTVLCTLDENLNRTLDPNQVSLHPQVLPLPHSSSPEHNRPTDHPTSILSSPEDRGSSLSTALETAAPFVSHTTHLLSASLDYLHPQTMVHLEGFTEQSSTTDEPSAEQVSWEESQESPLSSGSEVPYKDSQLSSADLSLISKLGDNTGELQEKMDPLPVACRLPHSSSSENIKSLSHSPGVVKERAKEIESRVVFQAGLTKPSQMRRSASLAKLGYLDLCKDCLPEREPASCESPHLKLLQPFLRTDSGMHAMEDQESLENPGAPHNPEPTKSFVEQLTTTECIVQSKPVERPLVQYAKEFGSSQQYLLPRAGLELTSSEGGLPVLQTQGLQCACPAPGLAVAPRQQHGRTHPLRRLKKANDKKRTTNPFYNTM
UniProt O95630, whole entry, looked up: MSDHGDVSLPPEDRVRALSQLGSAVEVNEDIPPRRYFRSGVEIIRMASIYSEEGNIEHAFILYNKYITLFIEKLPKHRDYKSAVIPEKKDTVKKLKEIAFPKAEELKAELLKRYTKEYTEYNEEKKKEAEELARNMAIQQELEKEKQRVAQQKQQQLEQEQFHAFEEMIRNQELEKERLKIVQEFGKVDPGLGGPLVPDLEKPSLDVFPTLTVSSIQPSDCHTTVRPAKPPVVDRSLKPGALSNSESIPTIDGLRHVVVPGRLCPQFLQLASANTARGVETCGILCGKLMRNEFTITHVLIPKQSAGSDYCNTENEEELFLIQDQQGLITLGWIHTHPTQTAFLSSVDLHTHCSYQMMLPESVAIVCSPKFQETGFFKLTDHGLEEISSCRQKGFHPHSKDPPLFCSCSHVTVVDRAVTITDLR
UniProt Q14534: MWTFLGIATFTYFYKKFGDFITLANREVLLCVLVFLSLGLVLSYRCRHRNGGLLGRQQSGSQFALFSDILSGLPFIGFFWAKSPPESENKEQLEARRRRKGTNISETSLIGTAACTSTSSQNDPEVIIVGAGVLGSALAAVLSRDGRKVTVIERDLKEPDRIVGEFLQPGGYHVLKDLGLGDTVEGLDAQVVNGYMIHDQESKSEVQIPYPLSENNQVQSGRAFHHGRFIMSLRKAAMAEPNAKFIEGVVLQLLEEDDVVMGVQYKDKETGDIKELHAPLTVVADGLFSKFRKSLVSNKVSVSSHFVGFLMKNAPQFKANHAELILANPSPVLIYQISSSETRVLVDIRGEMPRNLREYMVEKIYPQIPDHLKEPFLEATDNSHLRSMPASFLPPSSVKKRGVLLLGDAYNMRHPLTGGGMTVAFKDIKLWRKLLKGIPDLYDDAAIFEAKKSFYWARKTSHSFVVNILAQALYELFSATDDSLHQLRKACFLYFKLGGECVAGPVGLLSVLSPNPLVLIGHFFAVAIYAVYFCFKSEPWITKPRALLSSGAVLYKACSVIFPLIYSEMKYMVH
UniProt O15020, whole entry, looked up: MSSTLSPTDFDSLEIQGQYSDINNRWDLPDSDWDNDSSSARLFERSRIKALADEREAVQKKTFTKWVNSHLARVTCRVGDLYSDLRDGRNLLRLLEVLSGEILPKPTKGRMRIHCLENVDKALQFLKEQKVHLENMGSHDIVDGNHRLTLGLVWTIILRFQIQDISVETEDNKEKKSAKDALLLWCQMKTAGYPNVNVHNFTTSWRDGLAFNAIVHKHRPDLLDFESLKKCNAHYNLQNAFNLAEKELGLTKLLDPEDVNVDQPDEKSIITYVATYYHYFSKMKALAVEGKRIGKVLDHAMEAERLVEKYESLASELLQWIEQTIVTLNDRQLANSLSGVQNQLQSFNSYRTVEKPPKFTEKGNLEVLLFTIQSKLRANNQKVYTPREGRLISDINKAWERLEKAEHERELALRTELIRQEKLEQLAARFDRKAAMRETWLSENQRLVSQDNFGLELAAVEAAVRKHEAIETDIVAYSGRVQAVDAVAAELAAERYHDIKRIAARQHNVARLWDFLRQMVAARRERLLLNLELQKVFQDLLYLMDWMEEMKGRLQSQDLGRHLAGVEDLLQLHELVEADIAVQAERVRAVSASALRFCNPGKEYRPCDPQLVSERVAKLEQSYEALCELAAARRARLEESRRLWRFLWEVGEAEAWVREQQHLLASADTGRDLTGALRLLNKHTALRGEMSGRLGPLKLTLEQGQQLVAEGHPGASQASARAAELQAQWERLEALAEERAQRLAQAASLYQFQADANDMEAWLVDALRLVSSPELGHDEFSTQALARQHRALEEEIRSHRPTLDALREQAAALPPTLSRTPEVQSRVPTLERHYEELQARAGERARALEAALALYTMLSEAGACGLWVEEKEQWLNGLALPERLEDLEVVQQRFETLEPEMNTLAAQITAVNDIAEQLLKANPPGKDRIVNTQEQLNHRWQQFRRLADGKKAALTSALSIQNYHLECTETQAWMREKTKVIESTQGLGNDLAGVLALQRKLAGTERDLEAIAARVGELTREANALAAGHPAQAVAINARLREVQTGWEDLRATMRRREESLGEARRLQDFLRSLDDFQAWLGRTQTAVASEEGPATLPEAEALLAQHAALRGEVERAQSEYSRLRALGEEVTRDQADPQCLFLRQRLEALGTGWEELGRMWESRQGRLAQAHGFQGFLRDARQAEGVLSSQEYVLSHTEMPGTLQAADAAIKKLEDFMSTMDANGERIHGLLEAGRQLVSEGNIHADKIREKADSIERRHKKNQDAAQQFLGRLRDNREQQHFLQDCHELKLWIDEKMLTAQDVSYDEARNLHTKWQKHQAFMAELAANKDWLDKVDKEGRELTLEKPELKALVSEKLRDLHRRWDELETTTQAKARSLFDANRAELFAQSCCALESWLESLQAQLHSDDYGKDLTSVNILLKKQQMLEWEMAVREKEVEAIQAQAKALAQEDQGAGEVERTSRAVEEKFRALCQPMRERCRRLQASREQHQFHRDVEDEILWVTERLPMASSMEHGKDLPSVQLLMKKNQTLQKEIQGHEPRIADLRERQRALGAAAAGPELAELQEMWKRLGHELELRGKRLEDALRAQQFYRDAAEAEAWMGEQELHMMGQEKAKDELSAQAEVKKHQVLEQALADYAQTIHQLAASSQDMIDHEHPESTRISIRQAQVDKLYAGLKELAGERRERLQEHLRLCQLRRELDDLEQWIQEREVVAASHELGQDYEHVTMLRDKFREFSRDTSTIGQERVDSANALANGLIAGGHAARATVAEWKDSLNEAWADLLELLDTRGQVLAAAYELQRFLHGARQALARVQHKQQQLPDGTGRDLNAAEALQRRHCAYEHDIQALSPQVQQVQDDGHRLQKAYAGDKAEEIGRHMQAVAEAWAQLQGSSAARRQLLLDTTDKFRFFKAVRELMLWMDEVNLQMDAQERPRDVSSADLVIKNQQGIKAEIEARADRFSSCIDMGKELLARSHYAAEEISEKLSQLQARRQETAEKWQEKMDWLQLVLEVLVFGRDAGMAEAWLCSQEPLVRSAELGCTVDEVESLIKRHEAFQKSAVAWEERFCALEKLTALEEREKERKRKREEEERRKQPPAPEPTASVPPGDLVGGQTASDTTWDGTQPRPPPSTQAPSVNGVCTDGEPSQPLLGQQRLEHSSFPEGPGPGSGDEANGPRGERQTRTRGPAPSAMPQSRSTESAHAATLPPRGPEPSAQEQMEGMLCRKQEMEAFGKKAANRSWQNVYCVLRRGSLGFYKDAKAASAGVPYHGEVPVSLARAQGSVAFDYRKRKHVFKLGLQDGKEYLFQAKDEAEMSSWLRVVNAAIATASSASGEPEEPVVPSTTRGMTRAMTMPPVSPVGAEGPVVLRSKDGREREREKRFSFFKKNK

How the values were obtained:
Assay in all cases: log2 fold change, soluble protein after heating vs DMSO (PISA); higher = thermal stabilisation; K562 cells, 10 uM, 30 min; active = over 0.2 and 3.5 SD of the protein, either way, in both replicates (recomputed)
[1] = compound: CS(=O)(=O)c1ccc(-c2cnc(N)c(C(=O)Nc3ccccc3)n2)cc1
Outline: (§1)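 Aliquots of K562 cells (2×10^6 cells/mL) treated with 10 μM compound for 30 min were heated for 3 min over 48°C-58°C. After pooling and extraction in PBS with 0.5% NP-40 at 4°C, soluble protein from a 21,000xg, 90 min spin was quantified by TMTpro 16plex LC-MS/MS with channel sums equalised. Thermal stability is expressed against control samples, from duplicates, as a log2 fold change.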

crizotinib = compound: C[C@@H](Oc1cc(-c2cnn(C3CCNCC3)c2)cnc1N)c1c(Cl)ccc(F)c1Cl [crizotinib]
Outline: as §1

[2] = compound: C[C@@H]1COCCN1C2=NC(=NC(=C2)C3(CC3)S(=O)(=O)C)C4=C5C=CNC5=CC=C4
Outline: as §1

[3] = compound: C[C@H](C1=CC=C(C=C1)C(=O)NC2=C3C=CNC3=NC=C2)N
Outline: as §1

duvelisib = compound: C[C@H](Nc1ncnc2nc[nH]c12)c1cc2cccc(Cl)c2c(=O)n1-c1ccccc1 [duvelisib]
Outline: as §1

gandotinib = compound: Cc1cc(Nc2cc(CN3CCOCC3)c3nc(C)c(Cc4ccc(Cl)cc4F)n3n2)n[nH]1 [gandotinib]
Outline: as §1

tozasertib = compound: Cc1cc(Nc2cc(N3CCN(C)CC3)nc(Sc3ccc(NC(=O)C4CC4)cc3)n2)n[nH]1 [tozasertib]
Outline: as §1

[4] = compound: Cc1cc(SCc2sc(-c3ccc(C(F)(F)F)cc3)nc2C)ccc1OCC(=O)O
Outline: as §1

doramapimod = compound: Cc1ccc(-n2nc(C(C)(C)C)cc2NC(=O)Nc2ccc(OCCN3CCOCC3)c3ccccc23)cc1 [doramapimod]
Outline: as §1

ispinesib = compound: Cc1ccc(C(=O)N(CCCN)[C@@H](c2nc3cc(Cl)ccc3c(=O)n2Cc2ccccc2)C(C)C)cc1 [ispinesib]
Outline: as §1

bafetinib = compound: Cc1ccc(NC(=O)c2ccc(CN3CC[C@H](N(C)C)C3)c(C(F)(F)F)c2)cc1Nc1nccc(-c2cncnc2)n1 [bafetinib]
Outline: as §1

[5] = compound: Cc1cccc(CC(=O)N2CCc3c2ccc(-c2cn(C)c4ncnc(N)c24)c3F)n1
Outline: as §1

nilotinib = compound: Cc1cn(-c2cc(NC(=O)c3ccc(C)c(Nc4nccc(-c5cccnc5)n4)c3)cc(C(F)(F)F)c2)cn1 [nilotinib]
Outline: as §1

[6] = compound: Cc1nc(Nc2n[nH]c3c2CN(C(=O)N[C@H](CN(C)C)c2ccccc2)C3(C)C)c2sccc2n1
Outline: as §1

dasatinib = compound: Cc1nc(Nc2ncc(C(=O)Nc3c(C)cccc3Cl)s2)cc(N2CCN(CCO)CC2)n1 [dasatinib]
Outline: as §1

[7] = compound: Cc1ncc(-c2ccnc(Nc3ccc(S(C)(=O)=O)cc3)n2)n1C(C)C
Outline: as §1

[8] = compound: Cn1cc(-c2ccc3c(c2)CCN3C(=O)Cc2cccc(C(F)(F)F)c2)c2c(N)ncnc21
Outline: as §1

[9] = compound: Cn1cc(-c2ccc3nnc(C(F)(F)c4ccc5ncccc5c4)n3n2)cn1
Outline: as §1

tipifarnib = compound: Cn1cncc1[C@@](N)(c1ccc(Cl)cc1)c1ccc2c(c1)c(-c1cccc(Cl)c1)cc(=O)n2C [tipifarnib]
Outline: as §1

mubritinib = compound: FC(F)(F)c1ccc(/C=C/c2nc(COc3ccc(CCCCn4ccnn4)cc3)co2)cc1 [mubritinib]
Outline: as §1

Measured: log2 fold change

SRRM1 (UniProt Q8IYB3)
inactive: [1] -0.018 | crizotinib -0.1 | [2] -0.177 | [3] 0.08 | duvelisib -0.104 | gandotinib 0.156 | tozasertib -0.03 | [4] -0.03 | doramapimod 0.126 | ispinesib -0.21 | bafetinib 0.097 | [5] -0.015 | nilotinib 0.006 | [6] -0.042 | dasatinib 0.047 | [7] -0.039 | [8] -0.077 | [9] -0.18 | tipifarnib 0.108 | mubritinib -0.024

SPCS1, A0A5F9YFS9
inactive: [1] 0.031 | crizotinib -0.022 | [2] 0.046 | [3] -0.018 | duvelisib 0.068 | gandotinib -0.102 | tozasertib 0.045 | [4] 0.036 | doramapimod 0.024 | ispinesib -0.007 | bafetinib -0.091 | [5] -0.038 | nilotinib -0.025 | [6] 0.051 | dasatinib -0.09 | [7] 0.003 | [8] 0.19 | [9] 0.023 | tipifarnib -0.259 | mubritinib -0.004

SRP9 (UniProt P49458)
inactive: [1] -0.071 | crizotinib 0.072 | [2] -0.386 | [3] 0.345 | duvelisib -0.164 | gandotinib 0.197 | tozasertib 0.016 | [4] -0.004 | doramapimod 0.215 | ispinesib -0.188 | bafetinib 0.147 | [5] 0.014 | nilotinib 0.003 | [6] 0.093 | dasatinib 0.202 | [7] -0.01 | [8] -0.231 | [9] -0.089 | tipifarnib 0.111 | mubritinib -0.132

SPC25 (UniProt Q9HBM1)
inactive: [1] -0.005 | crizotinib -0.062 | [2] -0.08 | [3] -0.001 | duvelisib 0.059 | gandotinib -0.028 | tozasertib 0.071 | [4] 0.086 | doramapimod -0.008 | ispinesib -0.01 | bafetinib -0.011 | [5] 0 | nilotinib -0.063 | [6] -0.006 | dasatinib -0.024 | [7] 0.022 | [8] 0.021 | [9] -0.047 | tipifarnib -0.008 | mubritinib -0.013

SRP54 (UniProt P61011)
inactive: [1] 0.035 | crizotinib -0.038 | [2] 0.031 | [3] -0.024 | duvelisib 0.017 | gandotinib 0.004 | tozasertib 0.011 | [4] 0.04 | doramapimod 0.027 | ispinesib -0.066 | bafetinib -0.021 | [5] 0.058 | nilotinib -0.029 | [6] -0.035 | dasatinib -0.093 | [7] 0.053 | [8] 0.021 | [9] 0 | tipifarnib -0.061 | mubritinib 0.037

SSH2 (UniProt Q76I76)
inactive: [1] -0.064

SPATA5L1 (UniProt Q9BVQ7)
inactive: [1] 0.022 | crizotinib 0.021 | [2] 0.006 | [3] 0.006 | duvelisib 0.028 | gandotinib 0.028 | tozasertib -0.007 | [4] -0.041 | doramapimod 0.009 | ispinesib -0.004 | bafetinib -0.044 | [5] -0.023 | nilotinib -0.004 | [6] -0.175 | dasatinib -0.001 | [7] 0.035 | [8] 0.032 | [9] -0.009 | tipifarnib 0.048 | mubritinib -0.01

SPARC (UniProt P09486)
inactive: [1] -0.01 | crizotinib 0.085 | [2] -0.058 | [3] 0.072 | duvelisib -0.075 | gandotinib 0.076 | tozasertib -0.089 | [4] -0.022 | doramapimod -0.035 | ispinesib 0.008 | bafetinib -0.17 | [5] -0.149 | nilotinib 0.143 | [6] -0.121 | dasatinib -0.028 | [7] 0.029 | [8] -0.011 | [9] 0.091 | tipifarnib 0.045 | mubritinib 0.024

STAMBP (UniProt O95630)
inactive: [1] -0.004 | crizotinib 0.083 | [2] 0.066 | [3] 0.033 | duvelisib 0.05 | gandotinib -0.056 | tozasertib 0.105 | [4] 0.079 | doramapimod -0.042 | ispinesib -0.008 | bafetinib -0.076 | [5] 0.076 | nilotinib -0.033 | [6] -0.129 | dasatinib -0.125 | [7] 0.094 | [8] -0.032 | [9] 0.012 | tipifarnib -0.039 | mubritinib 0.011

STAG2 (UniProt Q8N3U4)
inactive: [1] 0.035 | crizotinib 0.027 | [2] 0.045 | [3] -0.118 | duvelisib 0.051 | gandotinib -0.032 | tozasertib 0.023 | [4] 0.007 | doramapimod -0.041 | ispinesib 0.066 | bafetinib -0.035 | [5] 0 | nilotinib 0.024 | [6] -0.099 | dasatinib -0.055 | [7] -0.057 | [8] 0.033 | [9] -0.026 | tipifarnib -0.02 | mubritinib 0.085

SPNS1 (UniProt Q9H2V7)
inactive: [1] 0.048 | crizotinib -0.113 | [2] 0.07 | [3] -0.05 | duvelisib 0.049 | gandotinib 0.082 | tozasertib -0.071 | [4] -0.043 | doramapimod 0.024 | ispinesib -0.286 | bafetinib -0.053 | [5] -0.034 | nilotinib -0.043 | [6] -0.009 | dasatinib 0.017 | [7] 0.021 | [8] 0.03 | [9] 0.099 | tipifarnib -0.052 | mubritinib 0.006

SQLE (UniProt Q14534)
inactive: [1] -0.009 | crizotinib -0.093 | [2] 0.006 | [3] -0.009 | duvelisib 0.034 | gandotinib 0.121 | tozasertib -0.006 | [4] -0.001 | doramapimod 0.029 | ispinesib 0.061 | bafetinib 0.074 | [5] 0.028 | nilotinib 0.068 | [6] 0.003 | dasatinib 0 | [7] 0.024 | [8] 0.123 | [9] -0.029 | tipifarnib 0.033 | mubritinib 0.049

SPN (UniProt P16150)
inactive: [1] 0.035 | crizotinib 0.217 | [2] -0.007 | [3] -0.042 | duvelisib 0.048 | gandotinib 0.029 | tozasertib -0.05 | [4] -0.138 | doramapimod -0.023 | ispinesib 0.074 | bafetinib -0.051 | [5] -0.066 | nilotinib 0.056 | [6] 0.051 | dasatinib 0.026 | [7] -0.023 | [8] 0.037 | [9] -0.017 | tipifarnib 0.081 | mubritinib 0.071

SSR1 (UniProt P43307)
inactive: [1] 0.004 | crizotinib 0.026 | [2] -0.023 | [3] 0.009 | duvelisib 0.044 | gandotinib -0.002 | tozasertib -0.013 | [4] -0.01 | doramapimod 0.01 | ispinesib -0.002 | bafetinib -0.077 | [5] -0.041 | nilotinib -0.02 | [6] 0.063 | dasatinib 0.05 | [7] -0.021 | [8] 0.007 | [9] 0 | tipifarnib 0.026 | mubritinib 0.024

Fetched one by one from above, 2 records:
SPNS1 (UniProt Q9H2V7)
inactive: [1] 0.048 | crizotinib -0.113 | [2] 0.07 | [3] -0.05 | duvelisib 0.049 | gandotinib 0.082 | tozasertib -0.071 | [4] -0.043 | doramapimod 0.024 | ispinesib -0.286 | bafetinib -0.053 | [5] -0.034 | nilotinib -0.043 | [6] -0.009 | dasatinib 0.017 | [7] 0.021 | [8] 0.03 | [9] 0.099 | tipifarnib -0.052 | mubritinib 0.006

SSR1 (UniProt P43307)
inactive: [1] 0.004 | crizotinib 0.026 | [2] -0.023 | [3] 0.009 | duvelisib 0.044 | gandotinib -0.002 | tozasertib -0.013 | [4] -0.01 | doramapimod 0.01 | ispinesib -0.002 | bafetinib -0.077 | [5] -0.041 | nilotinib -0.02 | [6] 0.063 | dasatinib 0.05 | [7] -0.021 | [8] 0.007 | [9] 0 | tipifarnib 0.026 | mubritinib 0.024

The results go on.

SRPK2 isoform 2 (UniProt P78362)
inactive: [1] -0.042 | crizotinib 0.044 | [2] -0.559 | [3] 0.43 | duvelisib -0.119 | gandotinib 0.248 | tozasertib -0.002 | [4] 0.071 | doramapimod 0.257 | ispinesib -0.246 | bafetinib 0.236 | [5] -0.047 | nilotinib 0.005 | [6] 0.393 | dasatinib 0.179 | [7] 0.003 | [8] -0.258 | [9] -0.157 | tipifarnib 0.232 | mubritinib -0.105

SPTBN2 (UniProt O15020)
inactive: [1] -0.118 | crizotinib 0.058 | [2] -0.13 | [3] 0.071 | duvelisib -0.007 | gandotinib 0.012 | tozasertib 0.082 | [4] 0.079 | doramapimod 0.014 | ispinesib 0.001 | bafetinib 0.042 | [5] 0.086 | nilotinib 0.063 | [6] -0.056 | dasatinib -0.092 | [7] 0.08 | [8] 0.132 | [9] -0.064 | tipifarnib 0.033 | mubritinib -0.043

SPECC1L (UniProt Q69YQ0)
inactive: [1] -0.032 | crizotinib 0.07 | [2] 0.04 | [3] -0.002 | duvelisib 0.108 | gandotinib 0.052 | tozasertib 0.001 | [4] 0.034 | doramapimod 0.048 | ispinesib 0.033 | bafetinib 0.011 | [5] 0.011 | nilotinib 0.01 | [6] 0.032 | dasatinib -0.103 | [7] -0.005 | [8] 0.037 | [9] -0.041 | tipifarnib -0.04 | mubritinib 0.073
